# Part of at least one peptide drawing is inferred or uncertain, most often the ends.
# By UniProt entry, the sequences of proteins in these tests, tags left out. Residues count along the entry.
# UniProt P47871, 26-477: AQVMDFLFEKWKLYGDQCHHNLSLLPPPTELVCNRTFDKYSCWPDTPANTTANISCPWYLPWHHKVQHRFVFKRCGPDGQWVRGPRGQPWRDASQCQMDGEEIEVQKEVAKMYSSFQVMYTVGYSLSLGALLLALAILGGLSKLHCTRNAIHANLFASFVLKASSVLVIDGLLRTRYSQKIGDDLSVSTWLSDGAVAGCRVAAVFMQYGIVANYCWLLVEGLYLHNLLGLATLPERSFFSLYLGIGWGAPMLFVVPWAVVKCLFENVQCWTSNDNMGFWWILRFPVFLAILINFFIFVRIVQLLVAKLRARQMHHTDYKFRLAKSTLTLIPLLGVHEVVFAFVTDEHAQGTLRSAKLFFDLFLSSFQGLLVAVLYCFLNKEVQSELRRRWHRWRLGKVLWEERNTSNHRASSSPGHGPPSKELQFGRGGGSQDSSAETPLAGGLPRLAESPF
# Target: T1, human GCGR (Homo sapiens, UniProt P47871)
# T1 construct: expressed in transfected cells; grown under Blasticidin and Hygromycin selection
# Experiment: cAMP activity assay, cells expressing human GCGR
# Format: cell-based
# Conditions: ratio of hGCGR EC50 to hGLP1R EC50, Table 7
smiles,measurement,value
CSCC[C@H](NC(=O)[C@H](CC(C)C)NC(=O)[C@H](Cc1c[nH]c2ccccc12)NC(=O)[C@H](CCC(N)=O)NC(=O)[C@@H](NC(=O)[C@H](Cc1ccccc1)NC(=O)[C@H](CC(=O)O)NC(=O)[C@H](CCC(N)=O)NC(=O)[C@H](C)NC(=O)[C@H](C)NC(=O)[C@H](CCCNC(=N)N)NC(=O)C(C)(C)NC(=O)[C@H](CC(=O)O)NC(=O)[C@H](CC(C)C)NC(=O)[C@H](Cc1ccc(O)cc1)NC(=O)[C@H](CCCCN)NC(=O)[C@H](CO)NC(=O)[C@H](CCCCN)NC(=O)[C@H](CC(=O)O)NC(=O)[C@H](CO)NC(=O)[C@@H](NC(=O)[C@H](Cc1ccccc1)NC(=O)[C@@H](NC(=O)CNC(=O)[C@H](CCC(N)=O)NC(=O)C(C)(C)NC(=O)[C@@H](N)Cc1c[nH]cn1)[C@@H](C)O)[C@@H](C)O)C(C)C)C(=O)N[C@@H](CC(N)=O)C(=O)N[C@H](C(=O)N[C@@H](CCCCN)C(=O)N[C@@H](CCC(N)=O)C(=O)N[C@@H](CCCCN=[N+]=[N-])C(N)=O)[C@@H](C)O [PEP89],GCGR/GLP1R ratio,88.63

# — patent US11058775B2, “Insulin dimer-incretin conjugates” (Merck Sharp & Dohme Corp., priority 2016, dated 2021)
